This note sets out measurements from publication PMC2193228.

Chains of the proteins cited; added tags and fusions are not shown.
UniProt Q9Y812: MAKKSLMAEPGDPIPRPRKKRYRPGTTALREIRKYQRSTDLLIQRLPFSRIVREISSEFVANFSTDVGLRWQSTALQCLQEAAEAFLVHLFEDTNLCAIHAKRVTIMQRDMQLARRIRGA

This assay has as its target Sim3 (S. pombe (endogenous in S. pombe)) (UniProt Q9USQ4). Nature of the assay: co-IP; cells overexpressing HA-tagged histones (nmt41x-HA-CENP-A^Cnp1; inv1-H3-HA; inv1-H4-HA); Figure S6.

These are yes or no findings as the source states them, for the method shown. Binding seen in cells or lysates may run through a third protein. Some results given as binding are weak or reduced against the parent protein; the word gives no strength.

As to “HA-tagged CENP-A^Cnp1 (from UniProt Q9Y812 1-120)”, the binding result was “binds”.
